Assay [1] deals with forkhead transcription factor FOXP3 (forkhead box P3) (human (endogenous in CD4+ T cells)) (UniProt Q9BZS1). The experiment in a line: co-IP; endogenous FOXP3 immunoprecipitated with anti-FOXP3 on Protein-A Sepharose from 1% Nonidet P-40 total lysates of human CD4+ T cells stimulated 24 h with Dap3/B7 or unstimulated; Western blot with anti-RelA. Background: In western blotting, separated proteins are transferred to a membrane and probed.

Chains of the proteins cited; added tags and fusions are not shown. Residues count along the entry.
UniProt Q9BZS1, residues 1-417: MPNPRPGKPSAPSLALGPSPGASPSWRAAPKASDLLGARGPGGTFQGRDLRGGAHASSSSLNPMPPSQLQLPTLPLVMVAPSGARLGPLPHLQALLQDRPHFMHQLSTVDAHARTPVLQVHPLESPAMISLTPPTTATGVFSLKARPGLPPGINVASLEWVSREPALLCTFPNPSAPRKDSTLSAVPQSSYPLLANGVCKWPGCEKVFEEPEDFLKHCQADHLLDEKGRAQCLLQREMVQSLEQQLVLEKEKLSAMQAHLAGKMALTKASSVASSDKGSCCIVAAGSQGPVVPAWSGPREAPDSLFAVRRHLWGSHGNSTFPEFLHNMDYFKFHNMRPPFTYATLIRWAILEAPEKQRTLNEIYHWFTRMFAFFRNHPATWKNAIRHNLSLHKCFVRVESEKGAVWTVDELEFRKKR
UniProt Q04206: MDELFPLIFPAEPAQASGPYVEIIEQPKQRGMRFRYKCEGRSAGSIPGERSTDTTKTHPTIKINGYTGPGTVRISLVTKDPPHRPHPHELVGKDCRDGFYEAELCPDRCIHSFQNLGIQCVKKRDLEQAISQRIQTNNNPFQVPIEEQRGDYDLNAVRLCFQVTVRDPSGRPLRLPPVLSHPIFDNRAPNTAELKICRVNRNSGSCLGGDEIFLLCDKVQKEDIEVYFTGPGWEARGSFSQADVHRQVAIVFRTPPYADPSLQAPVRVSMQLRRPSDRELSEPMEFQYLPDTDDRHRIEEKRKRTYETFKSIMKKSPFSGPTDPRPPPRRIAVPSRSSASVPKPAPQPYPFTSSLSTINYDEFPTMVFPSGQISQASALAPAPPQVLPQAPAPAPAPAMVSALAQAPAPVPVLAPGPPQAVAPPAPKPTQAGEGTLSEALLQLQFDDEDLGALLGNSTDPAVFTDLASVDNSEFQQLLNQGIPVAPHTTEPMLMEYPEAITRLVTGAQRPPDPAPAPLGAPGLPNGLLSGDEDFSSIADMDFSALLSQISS

The target is the same in assay [2]. The experiment in a line: Re-ChIP; formaldehyde-fixed chromatin of CD4+CD25- T cells 12 h after CD28 stimulation; first immunoprecipitation with anti-FOXP3 or anti-RelA, eluted with 10 mM DTT, second immunoprecipitation with the other antibody; PCR of Cd25 promoter region -319 +87.

No constants are given. Whether binding was seen depends on the method and setting. For some assays here: Binding seen in cells or lysates may run through a third protein. Some binding calls cover weakened binding; strength is not graded here.

Regarding RelA/NF-κB (from UniProt Q04206 1-551), the binding entry in assay [1] and in assay [2] was “binds” each time.

The values are drawn from publication PMC3483148.
